Data source: PubChem BioAssay AID1259308 (NCATS, 2017)
This is one part, drawn at random, of about 59,000 reagents. About 1,510 of all reagents (2.6%) count as active. 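Calls use total luciferase alone and ignore viability, so some active siRNAs may act by altering cell number.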 The numbers tell different reagents against one gene apart. Not all columns of the deposit are shown.

- Test: 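Knock-downs that increase output of a recombinant reporter protein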 (primary screen)
- Cells: human HEK293 embryonic kidney cells stably expressing firefly luciferase (HEK-CMV-Luc2-Hygro)
- Reagents: single siRNA against human genes, 0.8 pmol siRNA per well
- Time to read-out: 72 h
- Detection: 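Luciferase light (ONE-Glo) measured on one replicate plate set and viability (CellTiter-Glo) on the other, scaled to a negative control siRNA, with robust z-scores and luciferase per cell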
- Scale: total luciferase, z-score: higher = more reporter protein produced
- Hit rule: 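Active when the median/MAD z-score for overall luciferase is greater than 3; a gene was taken forward for validation with new siRNAs if at least two of its three siRNAs passed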
- Calls: active = raised luciferase; inactive = no rise

total luciferase, z-score, by target gene and reagent
ZBTB7B: #1 0.787 inactive; #2 -1.24 inactive; #3 -0.00383 inactive
PAFAH2: #1 0.169 inactive; #2 -0.516 inactive; #3 1.57 inactive
RASGRP4: #1 -0.0715 inactive; #2 0.674 inactive; #3 -0.762 inactive
SLC4A9: #1 -0.427 inactive; #2 -0.781 inactive; #3 4.17 active
LAPTM5: #1 1.08 inactive; #2 -1.5 inactive; #3 -0.384 inactive

An excerpt of the results above, as a working copy:
total luciferase, z-score, by target gene and reagent
SLC4A9: #3 4.17 active
LAPTM5: #1 1.08 inactive

Continued.
total luciferase, z-score, by target gene and reagent
MAPKBP1: #1 0.0696 inactive; #2 0.49 inactive; #3 0.174 inactive
DOK7: #1 0.299 inactive; #2 -0.321 inactive; #3 0.00252 inactive
MTCL3: #1 1.72 inactive; #2 2.27 inactive; #3 -1.64 inactive
